Source: paper doi:10.1101/2022.01.21.475743
No constants are given. Whether binding was seen depends on the method and setting. For part of these data: Binding calls can cover weak binding; strength is not graded here. For part of these data: Binding seen in cells or lysates may run through a third protein.

Sequences of proteins named here, by UniProt entry; tags and fusion partners are left off. A change or cut given only in a name is not applied to a line headed by its entry.
UniProt Q9HAW4: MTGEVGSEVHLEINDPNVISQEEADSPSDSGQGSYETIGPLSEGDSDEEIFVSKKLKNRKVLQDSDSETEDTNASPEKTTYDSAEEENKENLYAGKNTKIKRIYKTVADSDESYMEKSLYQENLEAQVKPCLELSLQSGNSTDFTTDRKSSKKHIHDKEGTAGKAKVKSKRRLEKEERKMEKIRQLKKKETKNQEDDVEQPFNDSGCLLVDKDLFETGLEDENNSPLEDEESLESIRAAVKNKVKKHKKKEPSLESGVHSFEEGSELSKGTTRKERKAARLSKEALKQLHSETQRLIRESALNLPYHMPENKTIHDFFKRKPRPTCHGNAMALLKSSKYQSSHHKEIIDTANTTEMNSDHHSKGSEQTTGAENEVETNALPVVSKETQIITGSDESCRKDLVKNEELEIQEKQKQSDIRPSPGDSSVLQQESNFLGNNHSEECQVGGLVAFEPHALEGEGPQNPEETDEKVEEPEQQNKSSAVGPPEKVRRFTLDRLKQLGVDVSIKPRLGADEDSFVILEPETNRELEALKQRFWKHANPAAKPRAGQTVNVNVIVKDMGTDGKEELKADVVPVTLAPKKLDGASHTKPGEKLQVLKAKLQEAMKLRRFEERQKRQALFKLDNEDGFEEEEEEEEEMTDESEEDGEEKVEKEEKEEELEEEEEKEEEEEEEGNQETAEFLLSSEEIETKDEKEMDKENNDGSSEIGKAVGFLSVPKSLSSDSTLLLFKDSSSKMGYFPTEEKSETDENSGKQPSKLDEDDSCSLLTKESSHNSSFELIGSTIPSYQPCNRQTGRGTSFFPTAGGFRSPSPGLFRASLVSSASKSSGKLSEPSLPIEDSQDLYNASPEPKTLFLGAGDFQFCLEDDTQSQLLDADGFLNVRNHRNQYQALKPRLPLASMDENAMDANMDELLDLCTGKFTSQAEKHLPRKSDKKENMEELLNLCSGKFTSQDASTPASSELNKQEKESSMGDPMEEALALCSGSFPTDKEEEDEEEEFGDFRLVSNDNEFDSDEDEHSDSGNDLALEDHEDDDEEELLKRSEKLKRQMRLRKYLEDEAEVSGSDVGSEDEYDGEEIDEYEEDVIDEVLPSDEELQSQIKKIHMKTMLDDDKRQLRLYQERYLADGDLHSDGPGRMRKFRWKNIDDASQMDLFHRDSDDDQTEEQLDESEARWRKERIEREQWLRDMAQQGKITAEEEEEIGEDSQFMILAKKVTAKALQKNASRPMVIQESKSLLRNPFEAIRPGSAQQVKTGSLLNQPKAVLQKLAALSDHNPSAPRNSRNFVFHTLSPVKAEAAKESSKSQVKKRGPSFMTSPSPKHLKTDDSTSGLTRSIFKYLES

B1: purified PDK1 (Carna Bioscience) (enzyme, UniProt O15530 1-556)
chain: MARTTSQLYDAVPIQSSVVLCSCPSPSMVRTQTESSTPPGIPGGSRQGPAMDGTAAEPRPGAGSLQHAQPPPQPRKKRPEDFKFGKILGEGSFSTVVLARELATSREYAIKILEKRHIIKENKVPYVTRERDVMSRLDHPFFVKLYFTFQDDEKLYFGLSYAKNGELLKYIRKIGSFDETCTRFYTAEIVSALEYLHGKGIIHRDLKPENILLNEDMHIQITDFGTAKVLSPESKQARANSFVGTAQYVSPELLTEKSACKSSDLWALGCIIYQLVAGLPPFRAGNEYLIFQKIIKLEYDFPEKFFPKARDLVEKLLVLDATKRLGCEEMEGYGPLKAHPFFESVTWENLHQQTPPKLTAYLPAMSEDDEDCYGNYDNLLSQFGCMQVSSSSSSHSLSASDTGLPQRSGSNIEQYIHDLDSNSFELDLQFSEDEKRLLLEKQAGGNPWHQFVENNLILKMGPVDKRKGLFARRRQLLLTEGPHLYYVDPVNKVLKGEIPWSQELRPEAKNFKTFFVHTPNRTYYLMDPSGNAHKWCRKIQEVWRQRYQSHPDAAVQ
B2: PDK1 (endogenous, 293T) (protein, UniProt O15530 1-556)
chain: MARTTSQLYDAVPIQSSVVLCSCPSPSMVRTQTESSTPPGIPGGSRQGPAMDGTAAEPRPGAGSLQHAQPPPQPRKKRPEDFKFGKILGEGSFSTVVLARELATSREYAIKILEKRHIIKENKVPYVTRERDVMSRLDHPFFVKLYFTFQDDEKLYFGLSYAKNGELLKYIRKIGSFDETCTRFYTAEIVSALEYLHGKGIIHRDLKPENILLNEDMHIQITDFGTAKVLSPESKQARANSFVGTAQYVSPELLTEKSACKSSDLWALGCIIYQLVAGLPPFRAGNEYLIFQKIIKLEYDFPEKFFPKARDLVEKLLVLDATKRLGCEEMEGYGPLKAHPFFESVTWENLHQQTPPKLTAYLPAMSEDDEDCYGNYDNLLSQFGCMQVSSSSSSHSLSASDTGLPQRSGSNIEQYIHDLDSNSFELDLQFSEDEKRLLLEKQAGGNPWHQFVENNLILKMGPVDKRKGLFARRRQLLLTEGPHLYYVDPVNKVLKGEIPWSQELRPEAKNFKTFFVHTPNRTYYLMDPSGNAHKWCRKIQEVWRQRYQSHPDAAVQ
modifications: phosphoserine at 241 (the form told to interact with Claspin in Fig. 5A)

Key:
[1] = biological target: Claspin ST27/A mutant, Flag-tagged (UniProt Q9HAW4); assay: pull-down
[2] = biological target: His-tagged 897-1209aa Claspin polypeptide, ST/A mutant (UniProt Q9HAW4); assay: pull-down
[3] = biological target: N-terminal polypeptide of Claspin (#2), C-terminally Flag-tagged; assay: pull-down
[4] = biological target: N-terminal polypeptide of Claspin (#26), C-terminally Flag-tagged; assay: pull-down
[5] = biological target: N-terminal polypeptide of Claspin (#2), C-terminally Flag-tagged; assay: co-IP
[6] = biological target: N-terminal polypeptide of Claspin (#26), C-terminally Flag-tagged; assay: co-IP

Binder | binding [1] | binding [2] | binding [3] | binding [4] | binding [5] | binding [6]
B1 | binds | binds weakly | binds weakly | binds weakly | – | –
B2 | – | – | – | – | no binding | no binding
